Shown are survivors of the treated group in tumour-free mice. Survivors were counted at the toxicity check, usually on the fifth day, unless a day is given; later deaths do not show. Schedules are NCI's codes, taken here to give the interval after Q, in days (D) or hours (H), and the number of doses after X. Some doses were run more than once; the results are listed from low to high.
Tested on: CD2F1 mice, nontumored, toxicity/survival
Test: NCI In Vivo Anticancer Drug Screen. Data for tumor model Nontumored Animals (Toxicity Test) in CD2F1 (CDF1) mice

SMILES: Cc1[nH]c(=O)[nH]c(=O)c1N(CCF)CCCl
- survivor count (dose: 0.5 mg/kg/injection, schedule: Q03HX024 (ip), vehicle: acid diluted with saline): 8 of 8
- survivor count (dose: 1.0 mg/kg/injection, schedule: Q03HX016 (ip), vehicle: acid diluted with saline): 8 of 8
- survivor count (dose: 1.0 mg/kg/injection, schedule: Q03HX024 (ip), vehicle: acid diluted with saline): 8 of 8
- survivor count (dose: 2.0 mg/kg/injection, schedule: Q01DX009 (ip), vehicle: acid diluted with saline): 8 of 8
- survivor count (dose: 2.0 mg/kg/injection, schedule: Q01DX009 (sc), vehicle: acid diluted with saline): 8 of 8
- survivor count (dose: 2.0 mg/kg/injection, schedule: Q03HX008 (ip), vehicle: acid diluted with saline): 8 of 8
- survivor count (dose: 2.0 mg/kg/injection, schedule: Q03HX016 (ip), vehicle: acid diluted with saline): 8 of 8
- survivor count (dose: 2.0 mg/kg/injection, schedule: Q03HX024 (ip), vehicle: acid diluted with saline): 8 of 8
- survivor count (dose: 2.0 mg/kg/injection, schedule: Q03HX024 (oral), vehicle: acid diluted with saline): 8 of 8
- survivor count (dose: 2.0 mg/kg/injection, schedule: Q03HX024 (oral), vehicle: other): 8 of 8
- survivor count (dose: 4.0 mg/kg/injection, schedule: Q01DX009 (ip), vehicle: acid diluted with saline): 8 of 8
- survivor count (dose: 4.0 mg/kg/injection, schedule: Q01DX009 (sc), vehicle: acid diluted with saline): 8 of 8
- survivor count (dose: 4.0 mg/kg/injection, schedule: Q03HX008 (ip), vehicle: acid diluted with saline): 8 of 8
- survivor count (dose: 4.0 mg/kg/injection, schedule: Q03HX008 (oral), vehicle: other): 8 of 8
- survivor count (dose: 4.0 mg/kg/injection, schedule: Q03HX016 (ip), vehicle: acid diluted with saline): 8 of 8
- survivor count (dose: 4.0 mg/kg/injection, schedule: Q03HX016 (oral), vehicle: other): 8 of 8
- survivor count (dose: 4.0 mg/kg/injection, schedule: Q03HX024 (ip), vehicle: acid diluted with saline): 8 of 8
- survivor count (dose: 4.0 mg/kg/injection, schedule: Q03HX024 (oral), vehicle: acid diluted with saline): 8 of 8
- survivor count (dose: 4.0 mg/kg/injection, schedule: Q03HX024 (oral), vehicle: other): 8 of 8
- survivor count (dose: 4.0 mg/kg/injection, schedule: Q04DX003 (ip), vehicle: acid diluted with saline): 8 of 8
- survivor count (dose: 8.0 mg/kg/injection, schedule: Q01DX009 (ip), vehicle: acid diluted with saline): 8 of 8
- survivor count (dose: 8.0 mg/kg/injection, schedule: Q01DX009 (ip), vehicle: saline with Tween-80): 8 of 8
- survivor count (dose: 8.0 mg/kg/injection, schedule: Q01DX009 (oral), vehicle: acid diluted with saline): 8 of 8
- survivor count (dose: 8.0 mg/kg/injection, schedule: Q01DX009 (oral), vehicle: other): 7 of 8
- survivor count (dose: 8.0 mg/kg/injection, schedule: Q01DX009 (sc), vehicle: acid diluted with saline): 8 of 8
- survivor count (dose: 8.0 mg/kg/injection, schedule: Q03HX008 (ip), vehicle: acid diluted with saline): 8 of 8
- survivor count (dose: 8.0 mg/kg/injection, schedule: Q03HX008 (oral), vehicle: acid diluted with saline): 8 of 8
- survivor count (dose: 8.0 mg/kg/injection, schedule: Q03HX008 (oral), vehicle: other): 7 of 8
- survivor count (dose: 8.0 mg/kg/injection, schedule: Q03HX016 (ip), vehicle: acid diluted with saline): 8 of 8
- survivor count (dose: 8.0 mg/kg/injection, schedule: Q03HX016 (oral), vehicle: acid diluted with saline): 8 of 8
- survivor count (dose: 8.0 mg/kg/injection, schedule: Q03HX016 (oral), vehicle: other): 8 of 8
- survivor count (dose: 8.0 mg/kg/injection, schedule: Q03HX024 (ip), vehicle: acid diluted with saline): 8 of 8
- survivor count (dose: 8.0 mg/kg/injection, schedule: Q03HX024 (oral), vehicle: acid diluted with saline): 8 of 8
- survivor count (dose: 8.0 mg/kg/injection, schedule: Q03HX024 (oral), vehicle: other): 8 of 8
- survivor count (dose: 8.0 mg/kg/injection, schedule: Q04DX003 (ip), vehicle: acid diluted with saline): 7 of 8
- survivor count (dose: 8.0 mg/kg/injection, schedule: Q08DX002 (ip), vehicle: acid diluted with saline): 8 of 8
- survivor count (dose: 16.0 mg/kg/injection, schedule: Q01DX001 (ip), vehicle: acid diluted with saline): 8 of 8
- survivor count (dose: 16.0 mg/kg/injection, schedule: Q01DX001 (sc), vehicle: acid diluted with saline): 8 of 8
- survivor count (dose: 16.0 mg/kg/injection, schedule: Q01DX009 (ip), vehicle: acid diluted with saline): 8 of 8
- survivor count (dose: 16.0 mg/kg/injection, schedule: Q01DX009 (ip), vehicle: saline with Tween-80): 8 of 8
- survivor count (dose: 16.0 mg/kg/injection, schedule: Q01DX009 (oral), vehicle: acid diluted with saline): 8 of 8
- survivor count (dose: 16.0 mg/kg/injection, schedule: Q01DX009 (oral), vehicle: other): 7 of 8
- survivor count (dose: 16.0 mg/kg/injection, schedule: Q01DX009 (sc), vehicle: acid diluted with saline): 8 of 8
- survivor count (dose: 16.0 mg/kg/injection, schedule: Q03HX008 (ip), vehicle: acid diluted with saline): 8 of 8
- survivor count (dose: 16.0 mg/kg/injection, schedule: Q03HX008 (oral), vehicle: acid diluted with saline): 8 of 8
- survivor count (dose: 16.0 mg/kg/injection, schedule: Q03HX008 (oral), vehicle: other): 3 of 8
- survivor count (dose: 16.0 mg/kg/injection, schedule: Q03HX016 (ip), vehicle: acid diluted with saline): 8 of 8
- survivor count (dose: 16.0 mg/kg/injection, schedule: Q03HX016 (oral), vehicle: acid diluted with saline): 7 of 8
- survivor count (dose: 16.0 mg/kg/injection, schedule: Q03HX016 (oral), vehicle: other): 2 of 8
- survivor count (dose: 16.0 mg/kg/injection, schedule: Q03HX024 (oral), vehicle: acid diluted with saline): 7 of 8
- survivor count (dose: 16.0 mg/kg/injection, schedule: Q03HX024 (oral), vehicle: other): 0 of 8
- survivor count (dose: 16.0 mg/kg/injection, schedule: Q04DX003 (ip), vehicle: acid diluted with saline): 8 of 8
- survivor count (dose: 16.0 mg/kg/injection, schedule: Q04DX003 (oral), vehicle: acid diluted with saline): 8 of 8
- survivor count (dose: 16.0 mg/kg/injection, schedule: Q04DX003 (oral), vehicle: other): 8 of 8
- survivor count (dose: 16.0 mg/kg/injection, schedule: Q08DX002 (ip), vehicle: acid diluted with saline): 8 of 8
- survivor count (dose: 32.0 mg/kg/injection, schedule: Q01DX001 (ip), vehicle: acid diluted with saline): 8 of 8
- survivor count (dose: 32.0 mg/kg/injection, schedule: Q01DX001 (oral), vehicle: other): 8 of 8
- survivor count (dose: 32.0 mg/kg/injection, schedule: Q01DX001 (sc), vehicle: acid diluted with saline): 8 of 8
- survivor count (dose: 32.0 mg/kg/injection, schedule: Q01DX009 (ip), vehicle: acid diluted with saline): 7 of 8 and 8 of 8
- survivor count (dose: 32.0 mg/kg/injection, schedule: Q01DX009 (ip), vehicle: saline with Tween-80): 8 of 8
- survivor count (dose: 32.0 mg/kg/injection, schedule: Q01DX009 (oral), vehicle: acid diluted with saline): 8 of 8
- survivor count (dose: 32.0 mg/kg/injection, schedule: Q01DX009 (oral), vehicle: other): 7 of 8
- survivor count (dose: 32.0 mg/kg/injection, schedule: Q01DX009 (sc), vehicle: acid diluted with saline): 8 of 8
- survivor count (dose: 32.0 mg/kg/injection, schedule: Q03HX008 (ip), vehicle: acid diluted with saline): 8 of 8
